# These are yes or no findings as the source states them, for the method shown. Binding seen in cells or lysates may run through a third protein. Some results given as binding are weak or reduced against the parent protein; the word gives no strength. Where a sequence is shown, tags or fusion partners need not be part of it.
# T1: GST-Rb (379-928) (human) (UniProt P06400)
# T1 sequence: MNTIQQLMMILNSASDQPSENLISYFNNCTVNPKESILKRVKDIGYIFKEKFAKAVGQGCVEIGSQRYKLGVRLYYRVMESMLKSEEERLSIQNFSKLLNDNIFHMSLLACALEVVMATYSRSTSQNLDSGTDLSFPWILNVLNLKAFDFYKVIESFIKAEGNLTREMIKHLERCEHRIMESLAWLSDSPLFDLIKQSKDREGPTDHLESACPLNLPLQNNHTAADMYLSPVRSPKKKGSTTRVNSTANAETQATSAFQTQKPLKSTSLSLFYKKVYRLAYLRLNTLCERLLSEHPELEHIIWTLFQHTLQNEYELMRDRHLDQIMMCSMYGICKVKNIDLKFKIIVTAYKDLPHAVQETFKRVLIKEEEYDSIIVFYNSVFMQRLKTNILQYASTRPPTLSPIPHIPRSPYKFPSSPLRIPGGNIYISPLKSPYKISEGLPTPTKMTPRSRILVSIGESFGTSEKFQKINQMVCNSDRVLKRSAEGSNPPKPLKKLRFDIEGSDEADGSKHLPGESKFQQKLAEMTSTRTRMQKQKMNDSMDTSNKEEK
# T2: Rb fused to BFP or EGFP (FRET) (human) (UniProt P06400)
# T2 sequence: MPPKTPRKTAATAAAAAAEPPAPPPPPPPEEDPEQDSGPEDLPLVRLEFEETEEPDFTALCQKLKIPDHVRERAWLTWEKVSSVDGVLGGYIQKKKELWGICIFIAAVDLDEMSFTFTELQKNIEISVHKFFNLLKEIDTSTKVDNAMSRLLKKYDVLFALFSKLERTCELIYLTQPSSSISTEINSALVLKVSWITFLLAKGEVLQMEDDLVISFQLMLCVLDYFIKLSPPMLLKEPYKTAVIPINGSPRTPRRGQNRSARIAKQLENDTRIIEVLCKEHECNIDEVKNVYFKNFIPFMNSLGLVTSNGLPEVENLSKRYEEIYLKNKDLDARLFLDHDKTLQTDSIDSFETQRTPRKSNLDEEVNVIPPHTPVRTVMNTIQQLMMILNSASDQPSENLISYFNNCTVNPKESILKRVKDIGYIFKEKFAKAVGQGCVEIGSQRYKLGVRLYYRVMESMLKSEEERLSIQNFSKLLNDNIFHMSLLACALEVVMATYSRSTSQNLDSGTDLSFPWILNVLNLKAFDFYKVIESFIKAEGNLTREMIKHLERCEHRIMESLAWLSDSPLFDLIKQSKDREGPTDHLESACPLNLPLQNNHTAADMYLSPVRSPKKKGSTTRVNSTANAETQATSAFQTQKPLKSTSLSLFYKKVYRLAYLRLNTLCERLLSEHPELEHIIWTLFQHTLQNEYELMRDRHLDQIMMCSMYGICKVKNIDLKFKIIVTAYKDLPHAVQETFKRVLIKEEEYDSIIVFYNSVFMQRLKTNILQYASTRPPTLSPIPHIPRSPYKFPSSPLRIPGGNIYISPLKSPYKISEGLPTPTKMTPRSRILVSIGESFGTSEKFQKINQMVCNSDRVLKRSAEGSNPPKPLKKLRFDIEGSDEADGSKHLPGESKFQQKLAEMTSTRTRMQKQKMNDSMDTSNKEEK
# B1: in vitro translated Orc1 fragment 529-861 (domain or fragment, UniProt Q13415 529-861)
# chain: CMYISGVPGTGKTATVHEVIRCLQQAAQANDVPPFQYIEVNGMKLTEPHQVYVQILQKLTGQKATANHAAELLAKQFCTRGSPQETTVLLVDELDLLWTHKQDIMYNLFDWPTHKEARLVVLAIANTMDLPERIMMNRVSSRLGLTRMCFQPYTYSQLQQILRSRLKHLKAFEDDAIQLVARKVAALSGDARRCLDICRRATEICEFSQQKPDSPGLVTIAHSMEAVDEMFSSSYITAIKNSSVLEQSFLRAILAEFRRSGLEEATFQQIYSQHVALCRMEGLPYPTMSETMAVCSHLGSCRLLLVEPSRNDLLLRVRLNVSQDDVLYALKDE
# modifications: [35S]-labelled
# B2: in vitro translated Orc1 fragment 1-144 (domain or fragment, UniProt Q13415 1-144)
# chain: MAHYPTRLKTRKTYSWVGRPLLDRKLHYQTYREMCVKTEGCSTEIHIQIGQFVLIEGDDDENPYVAKLLELFEDDSDPPPKKRARVQWFVRFCEVPACKRHLLGRKPGAQEIFWYDYPACDSNINAETIIGLVRVIPLAPKDVV
# modifications: [35S]-labelled
# B3: in vitro translated Orc1 fragment 270-861 (domain or fragment, UniProt Q13415 270-861)
# chain: EITSPSKRSQPDKLQTLSPALKAPEKTRETGLSYTEDDKKASPEHRIILRTRIAASKTIDIREERTLTPISGGQRSSVVPSVILKPENIKKRDAKEAKAQNEATSTPHRIRRKSSVLTMNRIRQQLRFLGNSKSDQEEKEILPAAEISDSSSDEEEASTPPLPRRAPRTVSRNLRSSLKSSLHTLTKVPKKSLKPRTPRCAAPQIRSRSLAAQEPASVLEEARLRLHVSAVPESLPCREQEFQDIYNFVESKLLDHTGGCMYISGVPGTGKTATVHEVIRCLQQAAQANDVPPFQYIEVNGMKLTEPHQVYVQILQKLTGQKATANHAAELLAKQFCTRGSPQETTVLLVDELDLLWTHKQDIMYNLFDWPTHKEARLVVLAIANTMDLPERIMMNRVSSRLGLTRMCFQPYTYSQLQQILRSRLKHLKAFEDDAIQLVARKVAALSGDARRCLDICRRATEICEFSQQKPDSPGLVTIAHSMEAVDEMFSSSYITAIKNSSVLEQSFLRAILAEFRRSGLEEATFQQIYSQHVALCRMEGLPYPTMSETMAVCSHLGSCRLLLVEPSRNDLLLRVRLNVSQDDVLYALKDE
# modifications: [35S]-labelled
# B4: in vitro translated Orc1 LPGRK protein (mutated in the LxCxE motif of Orc1) (protein, UniProt Q13415 1-861)
# chain: MAHYPTRLKTRKTYSWVGRPLLDRKLHYQTYREMCVKTEGCSTEIHIQIGQFVLIEGDDDENPYVAKLLELFEDDSDPPPKKRARVQWFVRFCEVPACKRHLLGRKPGAQEIFWYDYPACDSNINAETIIGLVRVIPLAPKDVVPTNLKNEKTLFVKLSWNEKKFRPLSSELFAELNKPQESAAKCQKPVRAKSKSAESPSWTPAEHVAKRIESRHSASKSRQTPTHPLTPRARKRLELGNLGNPQMSQQTSCASLDSPGRIKRKVAFSEITSPSKRSQPDKLQTLSPALKAPEKTRETGLSYTEDDKKASPEHRIILRTRIAASKTIDIREERTLTPISGGQRSSVVPSVILKPENIKKRDAKEAKAQNEATSTPHRIRRKSSVLTMNRIRQQLRFLGNSKSDQEEKEILPAAEISDSSSDEEEASTPPLPRRAPRTVSRNLRSSLKSSLHTLTKVPKKSLKPRTPRCAAPQIRSRSLAAQEPASVLEEARLRLHVSAVPESLPGRKQEFQDIYNFVESKLLDHTGGCMYISGVPGTGKTATVHEVIRCLQQAAQANDVPPFQYIEVNGMKLTEPHQVYVQILQKLTGQKATANHAAELLAKQFCTRGSPQETTVLLVDELDLLWTHKQDIMYNLFDWPTHKEARLVVLAIANTMDLPERIMMNRVSSRLGLTRMCFQPYTYSQLQQILRSRLKHLKAFEDDAIQLVARKVAALSGDARRCLDICRRATEICEFSQQKPDSPGLVTIAHSMEAVDEMFSSSYITAIKNSSVLEQSFLRAILAEFRRSGLEEATFQQIYSQHVALCRMEGLPYPTMSETMAVCSHLGSCRLLLVEPSRNDLLLRVRLNVSQDDVLYALKDE
# modifications: [35S]-labelled
# B5: in vitro translated Orc1 fragment 151-269 (domain or fragment, UniProt Q13415 151-269)
# chain: EKTLFVKLSWNEKKFRPLSSELFAELNKPQESAAKCQKPVRAKSKSAESPSWTPAEHVAKRIESRHSASKSRQTPTHPLTPRARKRLELGNLGNPQMSQQTSCASLDSPGRIKRKVAFS
# modifications: [35S]-labelled
# B6: Orc2 fused to EGFP or BFP (FRET) (protein, UniProt Q13416 1-577)
# chain: MSKPELKEDKMLEVHFVGDDDVLNHILDREGGAKLKKERAQLLVNPKKIIKKPEYDLEEDDQEVLKDQNYVEIMGRDVQESLKNGSATGGGNKVYSFQNRKHSEKMAKLASELAKTPQKSVSFSLKNDPEITINVPQSSKGHSASDKVQPKNNDKSEFLSTAPRSLRKRLIVPRSHSDSESEYSASNSEDDEGVAQEHEEDTNAVIFSQKIQAQNRVVSAPVGKETPSKRMKRDKTSDLVEEYFEAHSSSKVLTSDRTLQKLKRAKLDQQTLRNLLSKVSPSFSAELKQLNQQYEKLFHKWMLQLHLGFNIVLYGLGSKRDLLERFRTTMLQDSIHVVINGFFPGISVKSVLNSITEEVLDHMGTFRSILDQLDWIVNKFKEDSSLELFLLIHNLDSQMLRGEKSQQIIGQLSSLHNIYLIASIDHLNAPLMWDHAKQSLFNWLWYETTTYSPYTEETSYENSLLVKQSGSLPLSSLTHVLRSLTPNARGIFRLLIKYQLDNQDNPSYIGLSFQDFYQQCREAFLVNSDLTLRAQLTEFRDHKLIRTKKGTDGVEYLLIPVDNGTLTDFLEKEEEEA
# B7: EGFP-Orc1 (1-144) (domain or fragment, UniProt Q13415 1-144)
# chain: B2 chain
# B8: EGFP-tagged C-terminal fragment of Orc1 (270-861) (domain or fragment, UniProt Q13415 270-861)
# chain: B3 chain
# B9: EGFP-tagged middle fragment of Orc1 (151-269) (domain or fragment, UniProt Q13415 151-269)
# chain: B5 chain
# Target: T1, GST-Rb (379-928) (human)
# Test: pull-down; 1 ug GST fusion protein on glutathione-agarose beads, pretreated with DNase I and RNase A, incubated with in vitro translated [35S]-protein in 0.1 mg/ml ethidium bromide; SDS-PAGE, phosphoimaging; only the target purified
row,binding,Binder
1,no binding,B1
2,no binding,B2
3,binds,B3
4,binds,B4
5,binds weakly,B5

# Target: T2, Rb fused to BFP or EGFP (FRET) (human)
# Test: FRET or BRET; HeLa cells transiently transfected with EGFP and BFP fusion pairs; ratio of EGFP emission at 520 nm after excitation at 350 nm to that after 480 nm, at least 10 cells a pair
row,binding,Binder
1,no binding,B6
2,no binding,B7
3,binds,B8
4,binds,B9
